A short description of this assay: qHTS Assay for Lipid Storage Modulators in Drosophila S3 Cells.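 As to cell number change: cells counted by Cell Tracker Red CMTPX staining in the red channel.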 To be noted: BODIPY lipid droplet fluorescence, 18-24 h; for cell number change: measured here: cell count max response, cells fed with added oleic acid. The procedure, abridged: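 Drosophila S3 cells got compounds at several concentrations plus oleic acid (400 uM solution). Laser-scanning cytometry with 488 nm excitation read lipid droplets at 500-530 nm and cells at 575-640 nm. Percent activity was relative to 20 uM Triacsin C.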
A general note: In qHTS, concentration-response curves come from the screen itself.

The mark [1] stands for this setting: measured here: cell number channel AC50, cells fed with added oleic acid.
Setting [2] is: measured here: lipid fluorescence (Fed channel) AC50, cells fed with added oleic acid.

The other results are listed elsewhere or left out. Further columns of the screen follow, without active or inactive calls. The list favours compounds with an active or inconclusive main result. Potencies come from curve fits of mixed quality, noted in brackets.

What is called AC50 is the concentration at which the activity in the assay is half-maximal. Higher therefore signals activity only at high concentration. As to `CCN(Cc1ccccc1)C(=O)COC(=O)c1cc(S(=O)(=O)Nc2c(C)n(C)n(-c3ccccc3)c2=O)ccc1C`, the cell number change was -18.9%. Moreover, under setting [1], the AC50 was 0.00461 µM [falling, full curve, poor fit].

Turning to `COc1ccc(CCNC(=O)C2CCCN(c3nn4c(=O)cc(C)nc4s3)C2)cc1OC` (configuration not stated), the AC50 under setting [2] is 29.1 µM [falling, single point].

For `COc1ccccc1OCC(=O)N(Cc1nc(-c2ccc(Cl)cc2)no1)C(C)C`, the cell number change is 19.9%. Also, the AC50 under setting [2] was 6.51 µM [rising, single point]. Regarding `CC[C@H](C)C(C(=O)N1CCN(C(=O)OC(C)(C)C)CC1)n1cc(C(CC(C)C)NC(=O)OC(C)(C)C)nn1` (some centres not stated), the cell number change was -22.8%. In addition, under setting [2], the concentration at half-maximal activity (AC50) was 32.6 µM [falling, partial curve]. `Nc1cc(OC(=O)c2ccccc2Br)nn1S(=O)(=O)c1ccccc1`: the cell number change was -4.85%. Also, the half-maximal activity concentration (AC50) under setting [2] is 9.2 µM [falling, single point]. With `CC12CCC(C(=O)N(NC(=O)c3cc(Cl)ccc3O)C1=O)C2(C)C` (configuration not stated), the cell number change was determined as 8.69%. For the same compound, the AC50 under setting [2] was 18.4 µM [falling, single point]. For the compound `O=C(NC(=S)Nc1ccc(N2CCOCC2)cc1)c1ccc(Cl)cc1`, the cell number change worked out at 18.1%. On to `O=[N+]([O-])c1ccc(C[n+]2cccc3ccccc32)cc1`, for which the cell number change was -7.69%.

Consider `Nc1c(C(=O)NCc2ccco2)nnn1Cc1ccccc1`, for which the cell number change stood at 30.9%. Moreover, the AC50 under setting [1] was 29.1 µM [rising, single point].

Turning to `Cc1cccc(OCCC(=O)Nc2nnc(C)s2)c1`, the AC50 under setting [2] was 0.0259 µM [falling, full curve, poor fit]. Regarding `Cc1cccc(OCCC(=O)Nc2ccc(N3CCOCC3)cc2N2CCOCC2)c1`, the cell number change stood at 8.82%. In addition, under setting [2], the AC50 was 6.51 µM [falling, partial curve, poor fit]. Consider `O=C(COC(=O)CCOc1ccccc1)NCCc1ccccc1`, for which the cell number change was -68.7%. The AC50 under setting [1] is 20.6 µM [falling, single point]. `N#Cc1ccccc1S(=O)(=O)N1CCN(C(=O)c2cc(=O)[nH]c3ccccc23)CC1`: the cell number change was -7.96%. Further, the AC50 under setting [1] was 4.11 µM [rising, single point]. Moreover, the AC50 under setting [2] is 3.26 µM [rising, single point].

Turning to `CCOC(=O)CC1CCCCN1Cc1cn(C)nc1-c1ccc2c(c1)OCCO2` (configuration not stated), the cell number change is -7%. Take `CSc1ccc(/C=C/C(=O)OCC(=O)c2ccc[nH]2)cc1`: the cell number change was determined as 9.42%. The AC50 under setting [2] was 0.116 µM [rising, full curve, poor fit]. `CC(C)C(=O)Nc1cccc(NC(=O)c2cccc(F)c2)c1`: the cell number change was found to be 17.1%. For the compound `COc1oc(-c2ccccc2C)nc1C(F)(F)F`, the cell number change was -1.9%. Further, the AC50 under setting [2] was 0.116 µM [falling, full curve, poor fit]. `COc1ccc(C(=O)c2coc3ccc(O)c(CN(C)C)c23)cc1`: the AC50 under setting [2] is 1.03 µM [falling, full curve, poor fit].

With `O=C1CCCN1c1ccc(S(=O)(=O)Nc2cccnc2)cc1`, the cell number change was 51.1%. In addition, under setting [1], the AC50 was 9.2 µM [rising, partial curve, poor fit]. Also, the AC50 under setting [2] is 4.61 µM [falling, single point].

Take `COc1ccc(CCNC(=O)c2ccccc2OCc2ccccc2)cc1`: the cell number change turned out to be 34.2%. On to `CCOC(=O)c1sc2ncnc(N3CCN(C)CC3)c2c1C`, for which the AC50 under setting [1] was 0.092 µM [falling, full curve, poor fit] and the AC50 under setting [2] was 0.092 µM [falling, full curve, poor fit]. Consider `O=C(NCc1ccco1)c1cc(-c2ccco2)on1`, for which the cell number change was 6.08%. The concentration at half-maximal activity (AC50) under setting [2] is 13 µM [rising, single point].

Consider `Cc1ccc(CN2CCNC(=O)C2CC(=O)O)cc1` (configuration not stated), for which the cell number change is -80.2%. Besides, the AC50 under setting [2] was 29.1 µM [falling, single point]. `COc1ccc(CCNC(=O)Cn2nc(C)n3nc(-c4ccccc4)cc3c2=O)cc1OC`: the AC50 under setting [2] is 18.4 µM [falling, single point]. Regarding `CCOC(=O)C(C)Oc1ccc2c(CC)cc(=O)oc2c1C` (configuration not stated), the cell number change is 13%. Also, under setting [2], the AC50 is 0.231 µM [falling, full curve, poor fit]. As to `O=C1CC(c2ccc(F)cc2)C(n2cncn2)C(O)=C1C1NCCc2ccccc21` (configuration not stated), the cell number change is -21.3%. In addition, the AC50 under setting [1] is 0.00731 µM [falling, full curve, poor fit]. Further, the half-maximal activity concentration (AC50) under setting [2] was 0.00461 µM [falling, full curve, poor fit]. Take `Cc1noc(NS(=O)(=O)c2ccc(N/C=C\C(=O)c3ccncc3)cc2)c1C`: the cell number change was 6.49%. On to `O=C1NC(c2cccs2)C(C(=O)c2ccccc2)C(O)(C(F)(F)F)N1` (configuration not stated), for which the cell number change is -4.16%. Also, under setting [2], the AC50 was 20.6 µM [rising, single point]. For `COc1cc2cc(C(=O)N3CCOCC3)cc(-c3ccc(C)cc3)c2cc1OC`, the cell number change was -98.8%. Besides, under setting [1], the AC50 is 23.1 µM [falling, partial curve]. For the same compound, the AC50 under setting [2] is 20.6 µM [falling, partial curve].

Consider `CCNC(=O)/C(C#N)=C/c1c(N2CCN(c3ccccc3)CC2)nc2c(C)cccn2c1=O`, for which the cell number change is -17.2%.

For the compound `O=C(C1CCN(S(=O)(=O)c2ccccc2)CC1)N1CCN(Cc2ccccc2)CC1`, the cell number change was 2.31%. Regarding `O=C(Nc1ccc(Cl)c(Cl)c1)N1N=CCC1c1ccccc1` (configuration not stated), the cell number change was 113%. The AC50 under setting [1] was 14.6 µM [rising, partial curve]. For the same compound, the AC50 under setting [2] was 23.1 µM [rising, partial curve]. In the case of `COc1ccc2oc(C(=O)N3CCCc4ccccc43)c(C)c2c1`, the cell number change amounted to 99.2%. For the same compound, under setting [1], the AC50 was 11.6 µM [rising, partial curve].

On to `COCCNC(=O)[C@H]1C[C@@H]1[C@H](NP(=O)(c1ccccc1)c1ccccc1)c1ccccc1`, for which the cell number change was 28.9%. The AC50 under setting [2] is 3.26 µM [rising, single point]. For the compound `CC(=O)NC1=NC(=O)/C(=C/N2CCOCC2)S1`, the cell number change is -34.4%. In addition, under setting [1], the AC50 is 29.1 µM [falling, single point].

As for `CC1(NC(=O)c2cc(Cl)nc3ccccc23)CCS(=O)(=O)C1` (configuration not stated), the cell number change is -2.64%. In addition, the AC50 under setting [1] was 0.146 µM [falling, full curve, poor fit]. The AC50 under setting [2] is 0.13 µM [falling, full curve, poor fit]. For the compound `CCCCCCCCn1c2c(c(=N)c3c1CCC3)CCCC2`, the cell number change was -68.6%. For the same compound, under setting [1], the AC50 was 2.59 µM [falling, full curve]. In addition, the AC50 under setting [2] was 3.66 µM [falling, full curve].

Turning to `Cc1nnc(SCC(C)C)[nH]c1=O`, the cell number change was -8.13%. Moreover, the concentration at half-maximal activity (AC50) under setting [1] was 2.06 µM [falling, partial curve]. Moreover, under setting [2], the AC50 was 3.26 µM [falling, partial curve]. For `O=C(NCCc1ccccc1)c1ccc2c(=O)[nH]c3c(C(=O)NCC4CCCO4)sc(=S)n3c2c1` (configuration not stated), the cell number change was -43.3%. Under setting [1], the AC50 is 0.651 µM [falling, full curve]. Moreover, the AC50 under setting [2] was 0.82 µM [falling, full curve]. As for `CC1CCN(CCCN2C(=O)C3C(C(=O)Nc4ccc(Cl)cc4)C4C=CC3(O4)C2C(=O)NC2CCCCC2)CC1` (configuration not stated), the cell number change is -5.24%. Also, the AC50 under setting [2] was 2.59 µM [falling, partial curve, poor fit]. As to `O=C(Nc1ccc(Cl)cc1)c1ccc(CN2CCc3ccccc3C2)cc1`, the cell number change is -28.3%. The AC50 under setting [2] was 0.58 µM [rising, single point].

Take `CCOC(=O)CSc1nnc(CNc2ccc(F)cc2)o1`: the cell number change is -8.86%. Besides, the AC50 under setting [2] was 29.1 µM [falling, single point]. In the case of `COc1ccccc1C(=O)C1CCCN(C(=O)c2ccccn2)C1` (configuration not stated), the cell number change was -7.05%. The AC50 under setting [2] was 0.326 µM [falling, partial curve, poor fit]. Take `Cc1ccc(CN(Cc2cccnc2)C(=S)Nc2cc(Cl)ccc2C)cc1`: the AC50 under setting [2] is 0.291 µM [falling, partial curve, poor fit]. For the compound `O=[N+]([O-])c1ccc(S(=O)(=O)N2CCN(c3ccnc4cc(Cl)ccc34)CC2)cc1`, the cell number change is -14.4%. As to `Cn1c(=O)c2ncn(CC(=O)N/N=C/C=C/c3ccccc3)c2n(C)c1=O`, under setting [2], the AC50 was 0.0651 µM [falling, partial curve]. For the compound `Clc1ccc2c(c1)C1OCCC1C(c1ccco1)N2` (configuration not stated), the cell number change is -5.89%. Besides, the AC50 under setting [2] was 20.6 µM [rising, single point]. Regarding `CCCn1c(SCC(=O)Nc2ccccc2N2CCOCC2)nc2c1c(=O)n(C)c(=O)n2C`, the cell number change stood at 31.8%. The AC50 under setting [1] is 23.1 µM [rising, single point]. Besides, under setting [2], the AC50 was 20.6 µM [rising, single point]. For the compound `O=C(CSc1ccc2ccccc2c1)NCc1cccs1`, the cell number change is 11.6%. Also, under setting [2], the AC50 is 1.84 µM [rising, full curve, poor fit].

With `Cn1c(-c2ccc([N+](=O)[O-])cc2)nc2ccccc21`, the cell number change was found to be 3.31%. The AC50 under setting [2] is 6.51 µM [falling, single point]. On to `COc1ccc(NS(=O)(=O)c2cccc(C(=O)NNC(=O)CN3C(=O)NC(C)(C)C3=O)c2)cc1`, for which the cell number change is -29.8%. Also, under setting [1], the AC50 is 0.13 µM [falling, full curve, poor fit]. Besides, under setting [2], the AC50 was 3.66 µM [falling, full curve]. `Cn1c(=O)c(C(=O)COC(=O)c2cc(-c3ccco3)nc3ccccc23)c(N)n(Cc2ccccc2)c1=O`: the cell number change was -4.14%. In addition, the AC50 under setting [2] is 3.66 µM [rising, full curve]. Consider `COc1ccc(OC)c(N=Cc2c(O)[nH]c3ccccc23)c1`, for which the cell number change was -68.7%. For the same compound, the half-maximal activity concentration (AC50) under setting [1] is 18.4 µM [falling, partial curve]. For the same compound, under setting [2], the concentration at half-maximal activity (AC50) was 23.1 µM [falling, single point].

Take `COc1cccc2c1OCC(CN1CCN(CCC(C)C)C(CCO)C1)=C2` (configuration not stated): the cell number change is -14.3%. The concentration at half-maximal activity (AC50) under setting [2] is 25.9 µM [falling, single point]. Consider `CSCc1c(C(=O)Nc2ccccc2N2CCOCC2)oc2ccccc12`, for which the cell number change was 2.89%. The AC50 under setting [2] was 0.92 µM [rising, full curve, poor fit]. In the case of `CCN(CC)c1ccc(CNc2nc3ccccc3n2CCN2CCCCC2)cc1`, the cell number change is -64.3%. In addition, the AC50 under setting [1] is 35.5 µM [falling, partial curve]. In addition, the AC50 under setting [2] was 22.4 µM [falling, single point].

Consider `Brc1ccc(-c2nnc(Cc3ccccc3)o2)cc1`, for which the cell number change was 10.2%. For `COc1ccc(-c2csc(NC(=S)NC(=O)c3cccs3)n2)cc1OC`, the AC50 under setting [2] is 0.116 µM [rising, single point].

The record behind these values is PubChem BioAssay AID2685 (National Center for Advancing Translational Sciences (NCATS), 2010).
